Counter-ions that a name gives are not always drawn.
How the values were obtained:
C57BL/6 mice = assay: Survival of mice at a lethal dose (10 Gy whole body irradiation) after intraperitoneal medicament; assay type: in vivo, mouse
Text: 1.2.2 Experiment for Verifying the Survival Rate of Mice at a Lethal Dose
Mice were subjected to 10 Gy whole body irradiation with an X-ray biological irradiator in Department of Medicine having a dose rate of 1.5 Gy/min; and before irradiation, mice were intraperitoneally injected the medicament screened out via an in vitro experiment, and then continuously raised in a temporary storage room of the animal center after irradiation.
4 to 6 week-age C57BL/6 mice were selected as experimental subjects, and divided into control groups and experimental groups, and subjected to 10 Gy whole body irradiation with a dose rate of 1.5 Gy/min; mice in the experimental subjects were respectively intraperitoneally injected the medicaments screened half an hour before irradiation, and the survival time was recorded after irradiation. Among the medicaments, water-soluble Don-H, Pra-C and DL-Pan are dissolved by normal saline, and others were dissolved by 5 g/100 mL DMSO+edible oil. The medicament was prepared into a stock solution having a corresponding concentration according to the volume that 20 g mice were intraperitoneally injected 100 μL medicament.

crypt stem cells Lgr5+ = assay: In vitro medicament screening experiment on crypt stem cells Lgr5+ of mice (GFP fluorescence after 10 Gy irradiation); assay type: cell-based; details: Mus musculus, light or radiation study, 240 h, 10 μM medicament, GFP fluorescence 10 d after irradiation, read-out: increment of the Lgr5+ stem cells compared with IR groups
Text: 1.2.1 In Vitro Medicament Screening Experiment on Crypt Stem Cells Lgr5^+ of Mice
1) Lgr5-GFP mice were sacrificed by cervical dislocation, and enterocoelia was opened and the whole small intestine was taken out, and then the small intestine was put to a pre-cooled HBSS buffer solution to remove mesentery and adipose tissues as much as possible, and dissected longitudinally to wash out contents of the small intestine.
2) Villi and contents inside the intestinal cavity were scraped by a glass slide, and then the remaining intestinal cavity was washed for once to twice.
3) The whole small intestine was quickly cut into 5 mm intestinal segments. […]
15) The 96-well plate was put on a multi-mode microplate reader to read fluorescence intensity under the conditions of excitation wavelength at 485 nm and emission wavelength at 528 nm, and to record the values on the same day.
16) Crypt cells were irradiated with 10 Gy radiation, and the fluorescence intensity for consecutive 10 d after irradiation was recorded; afterwards, the background fluorescence intensity of a blank control was removed, and a fluorescence intensity curve was drawn; and the test results were shown in FIGS. 1-4.
Crypt stem cells Lgr5^+ separated from Lgr5-GFP mice in vivo carried GFP fluorescence, and the change of the mean fluorescence intensity (MFI) represented the proliferation of crypt stem cells Lgr5*. […]

Compound: COc1cc2c(cc1OC)C(=O)C(CC1CCN(Cc3ccccc3)CC1)C2 (stereo not drawn) [Donepezil HCl]
- survival time of the mice (C57BL/6 mice; 3 mg/kg i.p. half an hour before 10 Gy whole body irradiation): did not improve the survival time
- survival time of the mice (C57BL/6 mice; 6 mg/kg i.p. half an hour before 10 Gy whole body irradiation): did not improve the survival time
- fold induction at 10 µM (crypt stem cells Lgr5+): 6.2

From patent publication US11759445B2, “Use of Rivastigmine in preparation of anti-radiation medicament” (priority 2020, dated 2023)
